# Measurements as given in article PMC9018773.
# The chains behind the UniProt entries cited, without tags or fusion partners.
# UniProt Q62120: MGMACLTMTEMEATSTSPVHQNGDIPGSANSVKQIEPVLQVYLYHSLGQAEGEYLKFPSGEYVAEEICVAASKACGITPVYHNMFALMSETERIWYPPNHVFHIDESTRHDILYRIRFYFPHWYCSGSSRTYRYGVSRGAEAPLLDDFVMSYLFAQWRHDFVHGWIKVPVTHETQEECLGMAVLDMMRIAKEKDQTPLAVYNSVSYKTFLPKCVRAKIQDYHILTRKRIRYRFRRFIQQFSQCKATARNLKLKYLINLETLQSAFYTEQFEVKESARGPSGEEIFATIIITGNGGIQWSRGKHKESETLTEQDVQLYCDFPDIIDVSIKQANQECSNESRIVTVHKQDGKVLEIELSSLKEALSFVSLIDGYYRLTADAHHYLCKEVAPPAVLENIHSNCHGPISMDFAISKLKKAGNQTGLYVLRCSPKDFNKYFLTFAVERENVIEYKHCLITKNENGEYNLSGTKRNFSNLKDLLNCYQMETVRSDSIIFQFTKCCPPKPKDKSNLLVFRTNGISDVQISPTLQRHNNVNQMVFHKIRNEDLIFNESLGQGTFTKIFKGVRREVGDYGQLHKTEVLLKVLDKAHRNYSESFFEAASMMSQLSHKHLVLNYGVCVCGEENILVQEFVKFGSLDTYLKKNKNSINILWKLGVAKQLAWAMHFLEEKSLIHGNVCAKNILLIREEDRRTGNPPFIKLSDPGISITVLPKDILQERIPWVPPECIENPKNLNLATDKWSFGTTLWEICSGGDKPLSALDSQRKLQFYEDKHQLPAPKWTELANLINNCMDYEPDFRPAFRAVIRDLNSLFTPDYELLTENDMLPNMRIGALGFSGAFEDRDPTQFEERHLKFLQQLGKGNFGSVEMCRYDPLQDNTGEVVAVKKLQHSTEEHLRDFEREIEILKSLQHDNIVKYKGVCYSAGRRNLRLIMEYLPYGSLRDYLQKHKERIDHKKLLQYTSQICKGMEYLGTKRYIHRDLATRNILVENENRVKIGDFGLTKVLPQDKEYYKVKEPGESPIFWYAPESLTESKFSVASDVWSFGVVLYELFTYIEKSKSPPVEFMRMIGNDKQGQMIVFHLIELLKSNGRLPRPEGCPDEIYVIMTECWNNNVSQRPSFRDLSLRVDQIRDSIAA
# Results are given in words; binding and its absence hold for the method and conditions named. Binding seen in cells or lysates may run through a third protein. Some entries that bind do so weakly or less than the wild type.
# T1: density regulated re-initiation and release factor (DENR) (UniProt Q9CQJ6)
# T1 sequence: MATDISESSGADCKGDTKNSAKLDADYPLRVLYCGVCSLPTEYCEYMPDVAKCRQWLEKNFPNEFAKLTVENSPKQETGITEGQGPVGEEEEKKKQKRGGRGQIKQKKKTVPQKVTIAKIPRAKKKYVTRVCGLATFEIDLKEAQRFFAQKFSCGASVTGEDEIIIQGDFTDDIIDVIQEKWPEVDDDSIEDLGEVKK
# Legend:
# [1] = target: T1, density regulated re-initiation and release factor (DENR); assay: co-IP; endogenous proteins; 10 million cells lysed in NP40 buffer; supernatants incubated with rabbit anti-DENR, rabbit anti-JAK2 or rabbit normal IgG for 4 h at 4 °C, protein A/G beads 2 h, five washes in NP40 buffer; detected by blot
# Janus kinase 2 (JAK2) = Janus kinase 2 (JAK2) (UniProt Q62120); assay: as above
binding [1],binding (Janus kinase 2 (JAK2)),Molecule
no binding,,Janus kinase 2 (JAK2) (from UniProt Q62120 1-1132)
,no binding,"density regulated re-initiation and release factor (DENR) (protein, UniProt Q9CQJ6 1-198) MATDISESSGADCKGDTKNSAKLDADYPLRVLYCGVCSLPTEYCEYMPDVAKCRQWLEKNFPNEFAKLTVENSPKQETGITEGQGPVGEEEEKKKQKRGGRGQIKQKKKTVPQKVTIAKIPRAKKKYVTRVCGLATFEIDLKEAQRFFAQKFSCGASVTGEDEIIIQGDFTDDIIDVIQEKWPEVDDDSIEDLGEVKK"
binds,,"Multiple Copies In T-Cell Lymphoma-1 (MCTS1) (protein, UniProt Q9DB27 1-181) MFKKFDEKENVSNCIQLKTSVIKGIKNQLLEQFPGIEPWLNQIMPKKDPVKIVRCHEHIEILTVNGELLFFRQREGPFYPTLRLLHKYPFILPHQQVDKGAIKFVLSGANIMCPGLTSPGAKLYPAAVDTIVAIMAEGKQHALCVGVMKMSAEDIEKVNKGIGIENIHYLNDGLWHMKTYK"
